Measured values from PubChem BioAssay AID540256 (National Center for Advancing Translational Sciences (NCATS), 2011).
Hit rate of the full screen: of about 300,000 compounds, about 3,700 (1.2%) were called active. The shares of active, inactive and inconclusive entries below differ from those in the screen. Calls come from the whole dose curve; tested in HEK293 cells. A potency beside an inconclusive call is a rough fit, not a confirmed value.

assay: qHTS for Inhibitors of binding or entry into cells for Lassa Virus; settings: Lassa virus pseudotype entry inhibition, cell reporter; series mostly up to 37.9 µM; note: nearly all actives have a fitted effect of over 50% in size
Potency is the fitted concentration of half-maximal effect.

Row | Compound | Potency
1 | CC1(c2ccc3ccccc3c2)NC(=O)N(CC(=O)N2CCN(c3ccccc3O)CC2)C1=O (configuration not stated) | inconclusive: 20 µM [inhibitor, single point]
2 | CC1CN(C(=O)c2ccc3c(c2)OCO3)CC(C)O1 (configuration not stated) | inactive
3 | CCOC(=O)c1oc2ccccc2c1CN1CC(C)OC(C)C1 (configuration not stated) | inconclusive: 1.41 µM [activator, single point]
4 | COc1ccc(-c2nn3c(-c4ccc(F)cc4)nnc3s2)cc1 | inconclusive: 7.08 µM [inhibitor, partial curve, poor fit]
5 | Cc1ccc(NC(=O)C(Cc2c[nH]c3ccccc23)NC(=O)OC(C)(C)C)c(C)c1 (configuration not stated) | inconclusive: 6.31 µM [inhibitor, partial curve, poor fit]
6 | CCOc1ccc2nc(SCC(=O)NCC3CCCO3)c(C#N)cc2c1 (configuration not stated) | inconclusive: 0.562 µM [inhibitor, full curve, poor fit]
7 | Cc1ccc(NC(=O)Cc2nnc(SCC(=O)Nc3ccc(N4CCOCC4)cc3)n2C)cc1 | inactive
8 | CN(C)c1oc(-c2cccs2)nc1C#N | inactive
9 | Cc1cc(Cl)ccc1OCC(=O)NC1CCCC1 | inactive
10 | Cc1cccc(Oc2nc(-c3ccccc3)cc(C)c2S(C)(=O)=O)c1C | inconclusive: 12.6 µM [inhibitor, partial curve]
11 | CCOc1ccc(-c2cc(C(=O)N3CCN(c4cc(Cl)ccc4C)CC3)c3ccccc3n2)cc1 | inconclusive: 20 µM [activator, single point]
12 | Cc1ccc(C)c2nc3sc(C(=O)N4CCCc5ccccc54)c(N)c3cc12 | inconclusive: 9.2 µM [inhibitor, partial curve, poor fit]
13 | Cc1ccc(C(=O)Nc2ccc(S(=O)(=O)N3CCN(C)CC3)cc2)o1 | inconclusive: 8.2 µM [activator, partial curve, poor fit]
14 | COC(=O)CN1C(=O)Nc2ccc(Cl)cc2C1c1ccccc1 (configuration not stated) | inconclusive: 0.794 µM [activator, full curve, poor fit]
15 | OCCN1CN=C(Nc2nc3ccccc3o2)NC1 | inactive
16 | Cc1ccc(Nc2nc3nonc3nc2Nc2cccc(C(F)(F)F)c2)cc1Cl | inconclusive: 5.62 µM [inhibitor, full curve, poor fit]
17 | Cc1noc(C)c1COC(=O)CCCc1c[nH]c2ccccc12 | inconclusive: 16.4 µM [inhibitor, partial curve, poor fit]
18 | Cc1nnc(-c2ccc(C)c(-c3ccc(C(=O)NCc4ccc(Cl)cc4)cc3)c2)o1 | active: 0.628 µM
19 | O=C1Nc2ccc3c(c2C1=Cc1cc2c(cc1Br)OCO2)OCO3 | inconclusive: 0.447 µM [inhibitor, full curve]
20 | COc1ccc(CCNC(=O)C23CCC(C)(C(=O)C2Br)C3(C)C)cc1OC (configuration not stated) | inconclusive: 7.08 µM [inhibitor, partial curve]
21 | Nc1nc(NCc2ccccc2Cl)n(-c2ccccc2)n1 | inactive
22 | COc1ccc2c(C)cc(=O)[nH]c2c1 | inactive
23 | COc1ccc(N2CCN(c3oc(Cc4cccc5ccccc45)nc3C#N)CC2)cc1 | inconclusive: 13 µM [inhibitor, partial curve, poor fit]

Row | Compound | Potency
24 | Cc1ccc(S(=O)(=O)NC(=O)Nc2c(C)n(C)n(-c3ccccc3)c2=O)cc1 | inactive
25 | CCOC(=O)N1CCN(C(=O)c2nn(-c3ccc(C)cc3)c(=O)c3c2c2ccccc2n3C)CC1 | inconclusive: 22.4 µM [inhibitor, partial curve, poor fit]
26 | O=C(O)c1ccccc1-c1ccc(/C=c2\sc3nc4cc(Br)cnc4n3c2=O)o1 | inconclusive: 3.26 µM [inhibitor, partial curve, poor fit]
27 | Cc1nc(Nc2ccc(O)cc2)c2c3c(sc2n1)CCCC3 | inconclusive: 7.08 µM [inhibitor, full curve, poor fit]
28 | Cc1ccc(C)c(CSc2nnc3[nH]c(=O)cc(C)n23)c1 | inactive
29 | Cc1ccc(N2CC(NC(=O)C(=O)c3c(C)[nH]c4ccccc34)CC2=O)cc1 (configuration not stated) | inconclusive: 3.55 µM [activator, single point]
30 | CCN(CC)c1ccc2nc3ccccc3[n+](CC)c2c1 | inconclusive: 2.24 µM [inhibitor, full curve, poor fit]
31 | CC(C)OC(=O)c1ccc(NC(=O)c2ccco2)cc1 | inconclusive: 0.501 µM [activator, full curve]
32 | CC(=O)N1CCCc2cc(S(=O)(=O)N3CCCC(C(=O)N4CCN(c5cccc(Cl)c5)CC4)C3)ccc21 (configuration not stated) | inconclusive: 7.08 µM [inhibitor, partial curve, poor fit]
33 | Cc1nn(-c2ccccc2)c(Cl)c1/C=N/NC(=O)c1cccc(S(=O)(=O)N2CCCC2)c1 | inactive
34 | CC1CCCCN1C(=O)C1CC(c2ccc(F)cc2)=NO1 (configuration not stated) | inconclusive: 1.3 µM [activator, partial curve]
35 | CCc1ccc(C(=O)c2cn(CC(=O)Nc3ccc(Cl)cc3)c3cc4c(cc3c2=O)OCO4)cc1 | inconclusive: 35.5 µM [inhibitor, single point]
36 | CCOc1ccc(CNC(=O)c2cccc(NC(=O)N3CCSc4ncccc43)c2)cc1OC | inconclusive: 35.5 µM [inhibitor, single point]
37 | CCOC(=O)C1=C(C)NC(C)=C(C(=O)OCC)C1C(=O)OCC(=O)NCCc1ccc(S(N)(=O)=O)cc1 | inconclusive: 0.0891 µM [inhibitor, full curve, poor fit]
38 | N/C(=N\OC(=O)c1cc(-c2ccccc2)nc2ccccc12)c1ccncc1 | inconclusive: 25.9 µM [inhibitor, single point]
39 | Cc1cc(C)n(-c2ccc(C(=O)Nc3cccc(S(=O)(=O)N(C)C)c3)cc2)n1 | inconclusive: 8.91 µM [inhibitor, partial curve, poor fit]
40 | CCC(Cn1nnc2ccccc2c1=O)NC(=O)Nc1cc(C)cc(C)c1 (configuration not stated) | inactive
41 | Cc1cc2c(n1-c1ccc(C(=O)NCCc3ccc(Cl)cc3)cc1)CCCC2 | inconclusive: 12.6 µM [inhibitor, single point]
42 | CCN(CC)CCNc1nc2cc(OC)c(OC)cc2c2nc(-c3ccccc3)nn12 | inconclusive: 6.31 µM [activator, single point]
43 | O=C(Nc1cccc(Cl)c1)Nc1nc(-c2ccc(Cl)cc2)cs1 | inactive
44 | Cc1cc(C)c(NC(=O)CN(C2CCCCC2)C2CCCCC2)c(C)c1 | inconclusive: 0.0046 µM [inhibitor, full curve, poor fit]
45 | COc1ccc(NC(=O)CN2CCN(CC(=O)Nc3ccc(F)cc3F)CC2)cc1 | inconclusive: 1.58 µM [activator, single point]
46 | Cc1ccc(S(=O)(=O)NNC(=O)C(=O)NNc2ccccn2)cc1 | inactive

Row | Compound | Potency
47 | c1ccc2c(c1)CCN(C1=Nc3cccc4cccc1c34)C2 | inconclusive: 35.5 µM [inhibitor, single point]
48 | O=C(COC(=O)C1=NN(c2ccccc2)C(=O)CC1)NCc1ccccc1Cl | inactive
49 | COC(=O)c1sc(N)c(C(=O)OC)c1COC(=O)[C@@H](NS(=O)(=O)c1cccc(Cl)c1)C(C)C | inconclusive: 11.2 µM [inhibitor, partial curve, poor fit]
50 | O=C1NC(=Nc2cccc(O)c2)S/C1=C\c1cccc([N+](=O)[O-])c1 | inactive
51 | COc1ccc(CC2(CO)CCN(CC3=Cc4cc(Cl)ccc4OC3)CC2)cc1 | inconclusive: 12.6 µM [inhibitor, single point]
52 | CCC(C)Sc1nc2c(cnn2-c2ccc(F)cc2)c(=O)[nH]1 (configuration not stated) | inconclusive: 14.1 µM [inhibitor, partial curve, poor fit]
53 | CCN1CCN(S(=O)(=O)c2ccc(Cl)c(C(=O)Oc3ccc(CC(=O)OC)cc3)c2)CC1 | inactive
54 | Cc1ccc(C)c(N2CCN(C(=O)c3cn(CC(C)C)c(=O)c4c3c3ccccc3n4C)CC2)c1 | inconclusive: 1.78 µM [inhibitor, partial curve, poor fit]
55 | COc1ccc(Br)cc1C1C(C(=O)Nc2ccc(C)cc2C)=C(C)Nc2ncnn21 (configuration not stated) | inconclusive: 5.62 µM [inhibitor, single point]
56 | CCOc1cc(/C=C(\C#N)C(=O)Nc2cccc(C(=O)O)c2)cc(Br)c1OC(=O)c1ccc(OC)cc1 | inconclusive: 35.5 µM [inhibitor, single point]
57 | CS(=O)(=O)N1CCc2cc(C(=O)N3CCN(c4cccc(Cl)c4)CC3)ccc21 | inactive
58 | Cc1ccc(NC(=O)COC(=O)/C=C/c2cccs2)cc1 | inactive
59 | CCOc1ccc(CCNC(=O)c2nn(C)c3c2CS(=O)(=O)c2ccccc2-3)cc1OCC | inconclusive: 20 µM [inhibitor, partial curve, poor fit]
60 | COCCn1c(-c2ccccc2)nc2ccccc21 | inactive
61 | COc1ccc2oc(=O)c(C(=O)NC3CCCCCC3)cc2c1 | inactive
62 | O=C(Nc1ccc(N2CCN(C(=O)c3ccccc3)CC2)c(Cl)c1)c1ncn[nH]1 | inconclusive: 28.2 µM [inhibitor, single point]
63 | C=CCN1CCN(C(c2cccc(OC)c2OC)c2nnnn2CCC(C)C)CC1 (configuration not stated) | inactive
64 | Cc1ccc(N2CC(NC(=O)C3CC3)CC2=O)cc1 (configuration not stated) | inactive
65 | CC(C)CCOc1ccc(C(=O)NCC2OCCc3ccccc32)cc1 (configuration not stated) | inactive
66 | COc1ccc(NS(=O)(=O)c2ccc(N3CCCCS3(=O)=O)cc2)cc1Cl | inconclusive: 3.16 µM [inhibitor, full curve, poor fit]
67 | CC(=O)Nc1ccc(S(=O)(=O)NC2CCCCCC2)cc1 | inconclusive: 3.16 µM [inhibitor, partial curve, poor fit]

Filtered by structure, those above with an aryl methoxy group.
Row | Compound | Potency
4 | COc1ccc(-c2nn3c(-c4ccc(F)cc4)nnc3s2)cc1 | inconclusive: 7.08 µM [inhibitor, partial curve, poor fit]
20 | COc1ccc(CCNC(=O)C23CCC(C)(C(=O)C2Br)C3(C)C)cc1OC (configuration not stated) | inconclusive: 7.08 µM [inhibitor, partial curve]
22 | COc1ccc2c(C)cc(=O)[nH]c2c1 | inactive
23 | COc1ccc(N2CCN(c3oc(Cc4cccc5ccccc45)nc3C#N)CC2)cc1 | inconclusive: 13 µM [inhibitor, partial curve, poor fit]
36 | CCOc1ccc(CNC(=O)c2cccc(NC(=O)N3CCSc4ncccc43)c2)cc1OC | inconclusive: 35.5 µM [inhibitor, single point]
42 | CCN(CC)CCNc1nc2cc(OC)c(OC)cc2c2nc(-c3ccccc3)nn12 | inconclusive: 6.31 µM [activator, single point]
45 | COc1ccc(NC(=O)CN2CCN(CC(=O)Nc3ccc(F)cc3F)CC2)cc1 | inconclusive: 1.58 µM [activator, single point]
51 | COc1ccc(CC2(CO)CCN(CC3=Cc4cc(Cl)ccc4OC3)CC2)cc1 | inconclusive: 12.6 µM [inhibitor, single point]
55 | COc1ccc(Br)cc1C1C(C(=O)Nc2ccc(C)cc2C)=C(C)Nc2ncnn21 (configuration not stated) | inconclusive: 5.62 µM [inhibitor, single point]
56 | CCOc1cc(/C=C(\C#N)C(=O)Nc2cccc(C(=O)O)c2)cc(Br)c1OC(=O)c1ccc(OC)cc1 | inconclusive: 35.5 µM [inhibitor, single point]
61 | COc1ccc2oc(=O)c(C(=O)NC3CCCCCC3)cc2c1 | inactive
63 | C=CCN1CCN(C(c2cccc(OC)c2OC)c2nnnn2CCC(C)C)CC1 (configuration not stated) | inactive
66 | COc1ccc(NS(=O)(=O)c2ccc(N3CCCCS3(=O)=O)cc2)cc1Cl | inconclusive: 3.16 µM [inhibitor, full curve, poor fit]
